Measurements reported in PubChem BioAssay AID1224827 (NIAID, 2016).

Screen: 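Confirm genes whose knock-down changes LPS-driven TNF promoter activity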 (follow-up of hits)
Cells: RAW264.7 G9 mouse macrophage reporter clone
Knock-down reagent: single siRNA against mouse genes, 100 nM siRNA
Timing: siRNA for 2 days, then LPS about 16 h
Challenge: bacterial lipopolysaccharide (LPS), 10 ng/ml, cells fixed after overnight (about 16 h) stimulation
Read-out: 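TNF promoter reporter red fluorescence in nuclei, background subtracted, normalised per plate and to non-targeting control siRNA, as z-scores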
Direction: TNF reporter z-score, mean: higher = stronger Tnf promoter reporter signal
Call rule: 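Active siRNA: replicate-mean z-score of 2 or more, or -2 or less; no calls for control wells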
The whole screen tested about 3,800 reagents; below is a part drawn at random. About 2,200 of all reagents (57%) were called active. 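Active means a strong reporter change in either direction; calls are per siRNA, not per gene; qiagen siRNAs gave weaker effects.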 The numbers tell different reagents against one gene apart. Not all columns of the deposit are shown.

{"target gene": "Rps4x", "reagent": 1, "TNF reporter z-score, mean": 6.25, "outcome": "active"}
{"target gene": "Rps4x", "reagent": 2, "TNF reporter z-score, mean": 3.63, "outcome": "active"}
{"target gene": "Rps4x", "reagent": 3, "TNF reporter z-score, mean": 0.0864, "outcome": "inactive"}
{"target gene": "Rps4x", "reagent": 4, "TNF reporter z-score, mean": 0.138, "outcome": "inactive"}
{"target gene": "Rps4x", "reagent": 5, "TNF reporter z-score, mean": -1.23, "outcome": "inactive"}
{"target gene": "Rps4x", "reagent": 6, "TNF reporter z-score, mean": -1.07, "outcome": "inactive"}
{"target gene": "Taf12", "reagent": 1, "TNF reporter z-score, mean": -2.33, "outcome": "active"}
{"target gene": "Taf12", "reagent": 2, "TNF reporter z-score, mean": -2.52, "outcome": "active"}
{"target gene": "Taf12", "reagent": 3, "TNF reporter z-score, mean": -3.82, "outcome": "active"}
{"target gene": "Cct8l1", "reagent": 1, "TNF reporter z-score, mean": -0.0134, "outcome": "inactive"}
{"target gene": "Cct8l1", "reagent": 2, "TNF reporter z-score, mean": -2.47, "outcome": "active"}
{"target gene": "Cct8l1", "reagent": 3, "TNF reporter z-score, mean": -5.02, "outcome": "active"}
{"target gene": "Cct8l1", "reagent": 4, "TNF reporter z-score, mean": 3.76, "outcome": "active"}
{"target gene": "Cct8l1", "reagent": 5, "TNF reporter z-score, mean": 1.99, "outcome": "inactive"}
{"target gene": "Cct8l1", "reagent": 6, "TNF reporter z-score, mean": 0.0447, "outcome": "inactive"}
{"target gene": "Csf2ra", "reagent": 1, "TNF reporter z-score, mean": -0.72, "outcome": "inactive"}
{"target gene": "Csf2ra", "reagent": 2, "TNF reporter z-score, mean": -1.06, "outcome": "inactive"}
{"target gene": "Csf2ra", "reagent": 3, "TNF reporter z-score, mean": -1.59, "outcome": "inactive"}
{"target gene": "Csf2ra", "reagent": 4, "TNF reporter z-score, mean": 2.12, "outcome": "active"}
{"target gene": "Csf2ra", "reagent": 5, "TNF reporter z-score, mean": -0.749, "outcome": "inactive"}
{"target gene": "Csf2ra", "reagent": 6, "TNF reporter z-score, mean": -0.614, "outcome": "inactive"}
{"target gene": "Med25", "reagent": 1, "TNF reporter z-score, mean": 2.61, "outcome": "active"}
{"target gene": "Med25", "reagent": 2, "TNF reporter z-score, mean": -0.651, "outcome": "inactive"}
{"target gene": "Med25", "reagent": 3, "TNF reporter z-score, mean": -1.9, "outcome": "inactive"}
{"target gene": "Med25", "reagent": 4, "TNF reporter z-score, mean": -0.837, "outcome": "inactive"}
{"target gene": "Med25", "reagent": 5, "TNF reporter z-score, mean": -2.07, "outcome": "active"}
{"target gene": "Med25", "reagent": 6, "TNF reporter z-score, mean": -2.98, "outcome": "active"}
{"target gene": "Idh3g", "reagent": 1, "TNF reporter z-score, mean": 0.401, "outcome": "inactive"}
{"target gene": "Idh3g", "reagent": 2, "TNF reporter z-score, mean": -4.37, "outcome": "active"}
{"target gene": "Idh3g", "reagent": 3, "TNF reporter z-score, mean": -4.7, "outcome": "active"}
{"target gene": "Idh3g", "reagent": 4, "TNF reporter z-score, mean": -0.145, "outcome": "inactive"}
{"target gene": "Idh3g", "reagent": 5, "TNF reporter z-score, mean": -0.114, "outcome": "inactive"}
{"target gene": "Idh3g", "reagent": 6, "TNF reporter z-score, mean": -3.9, "outcome": "active"}
{"target gene": "Ca5a", "reagent": 1, "TNF reporter z-score, mean": 0.134, "outcome": "inactive"}
{"target gene": "Ca5a", "reagent": 2, "TNF reporter z-score, mean": -1.87, "outcome": "inactive"}
{"target gene": "Ca5a", "reagent": 3, "TNF reporter z-score, mean": -4.26, "outcome": "active"}
{"target gene": "Ca5a", "reagent": 4, "TNF reporter z-score, mean": 4.12, "outcome": "active"}
{"target gene": "Ca5a", "reagent": 5, "TNF reporter z-score, mean": 2.59, "outcome": "active"}
{"target gene": "Ca5a", "reagent": 6, "TNF reporter z-score, mean": -0.154, "outcome": "inactive"}
{"target gene": "Zeb2", "reagent": 1, "TNF reporter z-score, mean": -2.59, "outcome": "active"}
{"target gene": "Zeb2", "reagent": 2, "TNF reporter z-score, mean": -3.64, "outcome": "active"}
{"target gene": "Zeb2", "reagent": 3, "TNF reporter z-score, mean": -6.12, "outcome": "active"}
{"target gene": "Zeb2", "reagent": 4, "TNF reporter z-score, mean": -0.992, "outcome": "inactive"}
{"target gene": "Zeb2", "reagent": 5, "TNF reporter z-score, mean": -2.42, "outcome": "active"}
{"target gene": "Zeb2", "reagent": 6, "TNF reporter z-score, mean": -2.79, "outcome": "active"}

Already shown: an excerpt of the list.
{"target gene": "Idh3g", "reagent": 3, "TNF reporter z-score, mean": -4.7, "outcome": "active"}
{"target gene": "Idh3g", "reagent": 4, "TNF reporter z-score, mean": -0.145, "outcome": "inactive"}
{"target gene": "Idh3g", "reagent": 5, "TNF reporter z-score, mean": -0.114, "outcome": "inactive"}
{"target gene": "Idh3g", "reagent": 6, "TNF reporter z-score, mean": -3.9, "outcome": "active"}
